# Data taken from US20240239759A1, “ISOXAZOLINE COMPOSITIONS AND THEIR USE AS ANTIPARASITICS” (Intervet Inc., priority 2007, published 2024).
# System: adult fleas (C. felis)
# Assay: Efficacy against fleas on mice (Example 2A)
# Format: in vivo, Ctenocephalides felis
# Conditions: in general over the experiment
# Procedure: Mice were divided into groups of three, and treated topically with 100 ppm body weight, orally with 10 mg/kg bodyweight, or subcutaneously with 10 mg/kg bodyweight of Compound 11-1, fipronil (positive control), or nothing (negative control). These mice were sedated and infested with adult fleas (C. felis) 1, 3, 6, and 24 hr after treatment. Fleas were recovered from the mice after approximately 30 minutes of feeding. The assessment of flea inhibition (% of dead and damaged fleas) was conducted 1 and 24 hr after each infestation.
row,SMILES,Damaged fleas relative to killed fleas
1,"Cc1cc(C2=NOC(c3cc(Cl)cc(Cl)c3)(C(F)(F)F)C2)ccc1C(=O)NCC(=O)NCC(F)(F)F (racemic) [Compound 11-1, 4-[5-(3,5-dichlorophenyl)-5-trifluoromethyl-4,5-dihydroisoxazol-3-yl]-2-methyl-N-[(2,2,2-trifluoro-ethylcarbamoyl)-methyl]-benzamide]",only a few damaged fleas were found relative to killed fleas
2,"N#Cc1nn(-c2c(Cl)cc(C(F)(F)F)cc2Cl)c(N)c1[S+]([O-])C(F)(F)F (centres unmarked) [fipronil, reference compound]",killed and damaged fleas were generally found in equal amounts
